Assay: Soaking treatment, amount of active penetrated inside the hair
Details: pH 4.2, 40 deg C.

With `O=C(O)c1cc(Cl)ccc1O` [5-Chlorosalicylic acid] the “mg/g of Cl Salicylic acid” value (10 min soaking) was 19 mg/g, the “mg/g of Cl Salicylic acid” value (20 mins soaking) was 25 mg/g and the “mg/g of Cl Salicylic acid” value (30 mins soaking) was 30 mg/g. The “mg/g of Cl Salicylic acid” value (1 hr soaking) was 32 mg/g and the “mg/g of Cl Salicylic acid” value (2 hr soaking) was 32.8 mg/g.

Reference: patent US10632054B2, “Method for hair frizz reduction” (The Procter & Gamble Company, priority 2015, dated 2020)
